{
  "sequences": {"note": "Sequences of proteins named here, by UniProt entry; tags and fusion partners are left off. A change or cut given only in a name is not applied to a line headed by its entry.", "UniProt Q9MZI6": "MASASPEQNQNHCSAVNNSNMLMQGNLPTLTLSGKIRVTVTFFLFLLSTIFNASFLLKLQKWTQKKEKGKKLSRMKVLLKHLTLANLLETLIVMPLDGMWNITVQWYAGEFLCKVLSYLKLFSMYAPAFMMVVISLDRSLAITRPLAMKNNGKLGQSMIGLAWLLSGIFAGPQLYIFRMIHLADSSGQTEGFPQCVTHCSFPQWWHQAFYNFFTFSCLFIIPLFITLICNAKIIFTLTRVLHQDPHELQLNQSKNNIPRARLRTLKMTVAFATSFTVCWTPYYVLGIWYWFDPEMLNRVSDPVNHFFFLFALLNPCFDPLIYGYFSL"},
  "source": "patent US20240199754A1",
  "about": "(VANCOUVER BIOTECH LTD., priority 2021, published 2024)",
  "biological_target": "T1, N1-29 synthetic oligopeptide of dog GnRH receptor (dog) (UniProt Q9MZI6)",
  "T1 sequence (peptide)": "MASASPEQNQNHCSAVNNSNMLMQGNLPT",
  "assay": "ELISA on well-coated N1-29 peptide, goat anti-human IgG-alkaline phosphatase, OD 405 nm",
  "note": "These are yes or no findings as the source states them, for the method shown. Some results given as binding are weak or reduced against the parent protein; the word gives no strength.",
  "data": [
    {"binder": "GHR-106(hIgG4), humanized IgG4 GHR-106 monoclonal antibody (antibody, V domains shown, Humanized IgG4) VH: QVQLQESGPGLVKPSETLSLTCTVSGFSLSRYSVHWIRQPPGKGLEWIGMIWGGGSTDYNPSLKSRVTISKDNSKSQVFLKMSSVTAADTAMYYCARGNDGYYSFAYWGQGTLVTVSS VL: DIVMTQSPDSLAVSLGERATINCKSSQSLLNSRTRKNYLAWYQQKPGQSPKLLIYWASTRESGVPDRFSGSGSGTDFTLTISSLQAEDVAVYYCKQSYNLYTFGQGTKLEIKR", "values": [
      {"measurement": "binding", "result": "binds"}
    ]}
  ]
}
